Data published in the supplement of paper PMC12819154, “High-throughput peptide-centric local stability assay extends protein–ligand identification to membrane proteins, tissues and bacteria” (Nature Structural & Molecular Biology, 2025).
This is one part of the list. Most entries show no effect beyond the scatter of the controls.

The chains behind the UniProt entries cited, without tags or fusion partners. Where a name states a change or a piece, a line headed by the entry shows the natural chain unless it says otherwise.
UniProt Q62186: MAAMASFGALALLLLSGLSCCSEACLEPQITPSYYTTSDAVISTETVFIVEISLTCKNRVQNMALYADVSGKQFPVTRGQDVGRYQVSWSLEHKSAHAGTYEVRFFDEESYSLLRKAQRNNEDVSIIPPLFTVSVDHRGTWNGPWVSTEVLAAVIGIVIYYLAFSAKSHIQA
UniProt Q68EF0: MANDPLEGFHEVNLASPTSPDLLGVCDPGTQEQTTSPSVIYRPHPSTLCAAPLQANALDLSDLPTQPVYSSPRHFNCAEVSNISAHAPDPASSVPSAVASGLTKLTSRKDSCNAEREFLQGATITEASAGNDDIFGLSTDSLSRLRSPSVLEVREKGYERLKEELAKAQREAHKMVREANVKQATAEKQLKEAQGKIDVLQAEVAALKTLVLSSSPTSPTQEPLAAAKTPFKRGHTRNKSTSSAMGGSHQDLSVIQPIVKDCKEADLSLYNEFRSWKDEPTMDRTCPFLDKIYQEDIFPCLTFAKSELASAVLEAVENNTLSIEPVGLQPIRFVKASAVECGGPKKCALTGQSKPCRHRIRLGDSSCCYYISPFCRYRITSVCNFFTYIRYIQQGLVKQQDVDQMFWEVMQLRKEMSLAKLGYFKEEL
UniProt Q62425: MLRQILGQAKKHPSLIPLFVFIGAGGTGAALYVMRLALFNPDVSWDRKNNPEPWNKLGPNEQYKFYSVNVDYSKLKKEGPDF
UniProt Q61526, whole entry: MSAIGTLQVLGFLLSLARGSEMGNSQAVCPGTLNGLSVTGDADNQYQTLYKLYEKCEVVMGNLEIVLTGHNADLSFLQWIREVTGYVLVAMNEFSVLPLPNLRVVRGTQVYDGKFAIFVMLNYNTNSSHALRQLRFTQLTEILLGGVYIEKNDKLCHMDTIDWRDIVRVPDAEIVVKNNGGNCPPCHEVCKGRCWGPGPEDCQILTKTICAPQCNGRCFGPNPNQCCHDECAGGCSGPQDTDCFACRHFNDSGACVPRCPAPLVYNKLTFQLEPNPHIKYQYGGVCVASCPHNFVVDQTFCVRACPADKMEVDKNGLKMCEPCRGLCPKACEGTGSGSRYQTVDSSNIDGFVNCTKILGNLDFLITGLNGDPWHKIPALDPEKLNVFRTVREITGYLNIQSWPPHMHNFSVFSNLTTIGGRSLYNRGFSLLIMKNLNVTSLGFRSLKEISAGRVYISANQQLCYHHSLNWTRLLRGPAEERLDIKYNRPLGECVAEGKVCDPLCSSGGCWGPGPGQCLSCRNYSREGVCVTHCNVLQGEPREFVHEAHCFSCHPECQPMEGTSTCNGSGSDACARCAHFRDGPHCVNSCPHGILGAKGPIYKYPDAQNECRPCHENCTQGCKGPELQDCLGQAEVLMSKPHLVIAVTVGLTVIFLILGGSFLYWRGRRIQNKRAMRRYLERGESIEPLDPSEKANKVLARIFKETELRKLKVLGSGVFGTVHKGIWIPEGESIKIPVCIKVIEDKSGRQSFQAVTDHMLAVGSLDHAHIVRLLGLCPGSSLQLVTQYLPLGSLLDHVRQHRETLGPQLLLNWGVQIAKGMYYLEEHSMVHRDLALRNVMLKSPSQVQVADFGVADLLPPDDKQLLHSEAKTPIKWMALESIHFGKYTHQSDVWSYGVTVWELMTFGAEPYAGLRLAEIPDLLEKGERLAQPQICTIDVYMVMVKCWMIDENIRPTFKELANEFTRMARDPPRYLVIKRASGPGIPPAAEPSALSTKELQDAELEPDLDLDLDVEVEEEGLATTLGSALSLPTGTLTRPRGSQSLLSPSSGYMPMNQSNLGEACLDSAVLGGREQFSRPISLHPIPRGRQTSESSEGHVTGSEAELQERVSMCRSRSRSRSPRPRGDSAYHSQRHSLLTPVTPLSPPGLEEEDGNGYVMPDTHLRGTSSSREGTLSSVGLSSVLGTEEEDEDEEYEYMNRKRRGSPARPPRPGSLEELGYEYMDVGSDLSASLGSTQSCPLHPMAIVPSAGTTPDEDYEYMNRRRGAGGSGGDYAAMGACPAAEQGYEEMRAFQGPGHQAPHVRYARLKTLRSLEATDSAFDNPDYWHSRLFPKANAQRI
UniProt Q61548: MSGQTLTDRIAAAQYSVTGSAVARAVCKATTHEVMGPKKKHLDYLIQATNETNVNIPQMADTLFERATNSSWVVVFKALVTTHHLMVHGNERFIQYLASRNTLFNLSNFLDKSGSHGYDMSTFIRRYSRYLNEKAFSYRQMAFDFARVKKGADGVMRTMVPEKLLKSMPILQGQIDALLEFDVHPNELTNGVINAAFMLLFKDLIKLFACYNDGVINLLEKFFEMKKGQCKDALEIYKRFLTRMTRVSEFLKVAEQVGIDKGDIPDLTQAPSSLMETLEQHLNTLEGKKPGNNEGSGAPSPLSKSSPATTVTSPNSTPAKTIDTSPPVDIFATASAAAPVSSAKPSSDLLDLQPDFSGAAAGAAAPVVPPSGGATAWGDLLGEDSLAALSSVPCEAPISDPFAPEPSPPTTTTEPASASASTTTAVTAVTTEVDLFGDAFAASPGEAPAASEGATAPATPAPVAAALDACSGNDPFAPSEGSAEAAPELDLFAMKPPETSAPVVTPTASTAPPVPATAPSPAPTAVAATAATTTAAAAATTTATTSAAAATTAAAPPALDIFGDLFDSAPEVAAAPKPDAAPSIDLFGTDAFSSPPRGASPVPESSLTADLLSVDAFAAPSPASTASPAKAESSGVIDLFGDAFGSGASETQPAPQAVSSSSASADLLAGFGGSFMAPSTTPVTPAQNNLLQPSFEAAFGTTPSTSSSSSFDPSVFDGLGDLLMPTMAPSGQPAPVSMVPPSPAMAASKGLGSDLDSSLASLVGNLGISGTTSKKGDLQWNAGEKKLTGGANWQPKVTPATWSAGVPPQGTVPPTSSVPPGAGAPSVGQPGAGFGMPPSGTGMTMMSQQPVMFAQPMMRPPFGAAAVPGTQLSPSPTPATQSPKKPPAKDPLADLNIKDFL
UniProt Q64462: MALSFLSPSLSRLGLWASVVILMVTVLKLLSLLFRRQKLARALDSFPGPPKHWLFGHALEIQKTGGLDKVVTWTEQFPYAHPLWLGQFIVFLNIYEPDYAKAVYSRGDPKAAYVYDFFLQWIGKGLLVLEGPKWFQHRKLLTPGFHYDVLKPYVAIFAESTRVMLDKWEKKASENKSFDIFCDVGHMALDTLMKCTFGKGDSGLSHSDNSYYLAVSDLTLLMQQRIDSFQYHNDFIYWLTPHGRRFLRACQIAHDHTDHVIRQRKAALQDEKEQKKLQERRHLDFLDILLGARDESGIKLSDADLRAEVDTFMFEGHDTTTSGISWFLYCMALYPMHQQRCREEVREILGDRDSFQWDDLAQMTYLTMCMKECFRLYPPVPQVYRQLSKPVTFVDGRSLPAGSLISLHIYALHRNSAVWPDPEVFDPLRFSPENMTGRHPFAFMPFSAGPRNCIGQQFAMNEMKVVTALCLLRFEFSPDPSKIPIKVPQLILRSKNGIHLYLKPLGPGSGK
UniProt Q68FE6: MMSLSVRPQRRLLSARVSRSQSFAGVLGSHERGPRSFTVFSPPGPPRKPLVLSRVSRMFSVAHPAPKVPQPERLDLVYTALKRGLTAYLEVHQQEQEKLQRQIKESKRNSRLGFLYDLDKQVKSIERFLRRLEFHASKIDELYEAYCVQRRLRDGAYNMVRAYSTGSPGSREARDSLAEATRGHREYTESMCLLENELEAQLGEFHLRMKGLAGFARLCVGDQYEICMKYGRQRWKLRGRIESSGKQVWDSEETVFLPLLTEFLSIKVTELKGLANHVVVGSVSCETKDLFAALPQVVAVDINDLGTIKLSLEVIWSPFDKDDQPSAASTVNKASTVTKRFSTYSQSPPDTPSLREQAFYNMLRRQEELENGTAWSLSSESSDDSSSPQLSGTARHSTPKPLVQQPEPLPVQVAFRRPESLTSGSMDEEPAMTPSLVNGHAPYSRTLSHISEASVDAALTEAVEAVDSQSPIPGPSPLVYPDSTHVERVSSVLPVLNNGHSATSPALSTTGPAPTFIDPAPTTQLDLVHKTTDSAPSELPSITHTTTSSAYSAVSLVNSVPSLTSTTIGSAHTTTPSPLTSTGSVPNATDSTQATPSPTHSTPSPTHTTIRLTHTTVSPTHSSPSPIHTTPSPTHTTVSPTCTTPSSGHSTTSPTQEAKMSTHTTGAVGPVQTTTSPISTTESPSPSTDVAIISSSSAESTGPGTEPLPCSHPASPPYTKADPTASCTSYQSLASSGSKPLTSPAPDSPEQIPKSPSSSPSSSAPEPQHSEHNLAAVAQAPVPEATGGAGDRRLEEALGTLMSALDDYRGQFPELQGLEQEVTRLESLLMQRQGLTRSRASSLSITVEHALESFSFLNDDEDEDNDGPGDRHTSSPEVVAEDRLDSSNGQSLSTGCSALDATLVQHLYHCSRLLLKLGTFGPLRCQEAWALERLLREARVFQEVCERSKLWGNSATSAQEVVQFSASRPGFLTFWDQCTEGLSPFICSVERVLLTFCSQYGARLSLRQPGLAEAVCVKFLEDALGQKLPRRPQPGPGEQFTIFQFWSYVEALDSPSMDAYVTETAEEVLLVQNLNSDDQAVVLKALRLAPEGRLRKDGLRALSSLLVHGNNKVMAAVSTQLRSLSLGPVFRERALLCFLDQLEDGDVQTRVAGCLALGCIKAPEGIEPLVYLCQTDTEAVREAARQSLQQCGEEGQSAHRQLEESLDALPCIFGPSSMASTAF
UniProt Q62312: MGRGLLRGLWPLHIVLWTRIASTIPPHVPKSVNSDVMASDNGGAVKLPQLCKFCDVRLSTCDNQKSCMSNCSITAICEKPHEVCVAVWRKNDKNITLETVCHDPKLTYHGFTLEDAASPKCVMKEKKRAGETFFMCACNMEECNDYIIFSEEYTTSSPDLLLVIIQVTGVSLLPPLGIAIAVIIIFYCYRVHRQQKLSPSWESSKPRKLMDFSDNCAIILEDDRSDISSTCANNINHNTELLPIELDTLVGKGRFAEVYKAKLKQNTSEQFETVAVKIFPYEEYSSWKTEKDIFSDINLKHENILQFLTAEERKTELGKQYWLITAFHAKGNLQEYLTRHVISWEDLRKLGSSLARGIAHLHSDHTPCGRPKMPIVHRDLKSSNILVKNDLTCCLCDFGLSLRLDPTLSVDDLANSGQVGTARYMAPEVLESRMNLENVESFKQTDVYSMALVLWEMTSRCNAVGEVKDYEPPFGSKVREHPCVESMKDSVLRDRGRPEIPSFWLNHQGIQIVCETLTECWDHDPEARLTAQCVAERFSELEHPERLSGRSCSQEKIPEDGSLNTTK
UniProt Q64324: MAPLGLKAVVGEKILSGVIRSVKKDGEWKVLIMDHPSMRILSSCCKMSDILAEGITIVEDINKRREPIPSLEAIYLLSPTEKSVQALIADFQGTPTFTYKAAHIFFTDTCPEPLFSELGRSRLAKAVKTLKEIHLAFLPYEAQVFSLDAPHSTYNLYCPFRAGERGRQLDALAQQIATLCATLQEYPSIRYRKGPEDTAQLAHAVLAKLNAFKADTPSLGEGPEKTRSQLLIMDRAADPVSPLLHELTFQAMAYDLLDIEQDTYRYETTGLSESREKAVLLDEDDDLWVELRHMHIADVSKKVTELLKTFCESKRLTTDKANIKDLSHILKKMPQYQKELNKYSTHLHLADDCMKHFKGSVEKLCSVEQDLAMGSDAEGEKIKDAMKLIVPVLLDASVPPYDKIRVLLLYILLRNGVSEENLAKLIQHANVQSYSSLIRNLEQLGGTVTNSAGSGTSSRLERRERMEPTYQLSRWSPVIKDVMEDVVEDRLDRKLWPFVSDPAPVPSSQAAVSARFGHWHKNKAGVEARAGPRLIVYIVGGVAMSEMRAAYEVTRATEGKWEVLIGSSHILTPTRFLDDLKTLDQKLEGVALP
UniProt Q62191: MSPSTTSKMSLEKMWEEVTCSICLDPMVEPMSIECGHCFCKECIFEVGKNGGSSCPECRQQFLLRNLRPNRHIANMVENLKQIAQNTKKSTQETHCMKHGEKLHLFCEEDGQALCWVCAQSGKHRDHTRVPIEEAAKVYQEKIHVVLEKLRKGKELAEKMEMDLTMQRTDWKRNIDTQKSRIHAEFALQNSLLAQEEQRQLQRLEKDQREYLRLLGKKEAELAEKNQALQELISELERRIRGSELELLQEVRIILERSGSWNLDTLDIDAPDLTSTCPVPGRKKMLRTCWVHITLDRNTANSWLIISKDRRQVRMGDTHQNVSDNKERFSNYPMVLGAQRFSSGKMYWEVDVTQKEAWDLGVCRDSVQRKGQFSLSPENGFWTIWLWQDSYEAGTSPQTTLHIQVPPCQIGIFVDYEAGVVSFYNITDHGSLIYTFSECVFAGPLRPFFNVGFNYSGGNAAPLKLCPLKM
UniProt Q64010: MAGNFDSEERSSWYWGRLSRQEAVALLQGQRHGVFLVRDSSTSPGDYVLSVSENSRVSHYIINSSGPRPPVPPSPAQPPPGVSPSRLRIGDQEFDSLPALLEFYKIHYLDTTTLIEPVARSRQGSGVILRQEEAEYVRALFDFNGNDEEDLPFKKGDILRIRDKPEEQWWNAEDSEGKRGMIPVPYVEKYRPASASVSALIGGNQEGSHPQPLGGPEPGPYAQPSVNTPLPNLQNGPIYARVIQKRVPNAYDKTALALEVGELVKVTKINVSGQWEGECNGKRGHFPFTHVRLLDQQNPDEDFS

Compound: CN[C@@H]1C[C@H]2O[C@@](C)([C@@H]1OC)n1c3ccccc3c3c4c(c5c6ccccc6n2c5c31)C(=O)NC4 [staurosporine]
Assay: log2 fold change of tryptic peptide abundance, ligand vs vehicle (limited proteolysis) (log2 ratio); higher = more trypsin-susceptible (destabilized)
Details: ligand concentration: 20 uM; sample: mouse liver crude lysate; replicate design: treated separately

| Target | log2 fold change |
| --- | --- |
| UniProt Q62481 (peptide sequence: TLLPLELQDDGSDSRK, peptide start residue: 116) | -0.139 |
| UniProt Q62186 (peptide sequence: FFDEESYSLLRK, peptide start residue: 105) | -0.58 |
| UniProt Q62048 (peptide sequence: QPSEEEIIK, peptide start residue: 114) | 0.0757 |
| UniProt Q68EF0 (peptide sequence: CALTGQSKPCR, peptide start residue: 347) | 0.36 |
| UniProt Q64378 (peptide sequence: EKLTQAAIVK, peptide start residue: 263) | 0.333 |
| UniProt Q61559 (peptide sequence: NLEWKEPPSMR, peptide start residue: 196) | -0.16 |
| UniProt Q64669 (peptide sequence: NFQYPSESSLAYKEGR, peptide start residue: 65) | 0.511 |
| UniProt Q63836 (peptide sequence: CGPGYPTPLEAMKGPR, peptide start residue: 8) | 0.257 |
| UniProt Q63844 (peptide sequence: NYLQSLPSK, peptide start residue: 280) | 0.179 |
| UniProt Q62415 (peptide sequence: SVVNVPGEKR, peptide start residue: 105) | -0.336 |
| UniProt Q62463 (peptide sequence: GSGEAAGPFHK, peptide start residue: 263) | -0.162 |
| UniProt Q61420 (peptide sequence: ASLSENVLGSPK, peptide start residue: 75) | 0.314 |
| UniProt Q61606 (peptide sequence: LASSHGSHMAPAGPCHGDPCEK, peptide start residue: 430) | 0.157 |
| UniProt Q640N1 (peptide sequence: EILAMNGNRPILR, peptide start residue: 983) | -0.245 |
| UniProt Q62425 (peptide sequence: KNNPEPWNK, peptide start residue: 48) | 0.179 |
| UniProt Q61542 (peptide sequence: RPGDLACDLER, peptide start residue: 4) | 0.126 |
| UniProt Q61526 (peptide sequence: CWMIDENIRPTFK, peptide start residue: 945) | -0.477 |
| UniProt Q62130 (peptide sequence: ADYIPSHR, peptide start residue: 423) | 0.167 |
| UniProt Q61647 (peptide sequence: LAVEALVR, peptide start residue: 199) | 0.0213 |
| UniProt Q66L42 (peptide sequence: ITVQASPTLDKR, peptide start residue: 507) | -0.29 |
| UniProt Q63886 (peptide sequence: TAFNQDSFLLR, peptide start residue: 100) | -0.314 |
| UniProt Q64314 (peptide sequence: GAQENGTGQATSR, peptide start residue: 355) | -0.0601 |
| UniProt Q62193 (peptide sequence: SQLQHMPVPSIK, peptide start residue: 232) | 0.0845 |

| Target | log2 fold change |
| --- | --- |
| UniProt Q62452 (peptide sequence: YTGTRPSNLAK, peptide start residue: 339) | -0.436 |
| UniProt Q64343 (peptide sequence: SIVCTIHQPSAK, peptide start residue: 268) | 0.506 |
| UniProt Q64213 (peptide sequence: GSDGPSHESEDFPRPLVTLPGR, peptide start residue: 616) | 0.451 |
| UniProt Q62165 (peptide sequence: MQSFSEVELHNMK, peptide start residue: 212) | 0.432 |
| UniProt Q61937 (peptide sequence: AKMQASIEK, peptide start residue: 247) | -0.288 |
| UniProt Q61838 (peptide sequence: YGAATFTR, peptide start residue: 1282) | 0.273 |
| UniProt Q62151 (peptide sequence: KPPQQLEWK, peptide start residue: 44) | 0.224 |
| UniProt Q61548 (peptide sequence: FIQYLASR, peptide start residue: 93) | -0.244 |
| UniProt Q64462 (peptide sequence: ALDSFPGPPK, peptide start residue: 42) | -0.246 |
| UniProt Q61585 (peptide sequence: EACEQQSLHK, peptide start residue: 68) | -0.203 |
| UniProt Q64337 (peptide sequence: HGHFGWPGWEMGPPGNWSPRPPR, peptide start residue: 190) | -0.501 |
| UniProt Q64487 (peptide sequence: LIVNLKPEK, peptide start residue: 1071) | 0.368 |
| UniProt Q62086 (peptide sequence: EVESVDLPNCHLIK, peptide start residue: 33) | -0.357 |
| UniProt Q61419 (peptide sequence: EYILYKEKDHLK, peptide start residue: 37) | -0.186 |
| UniProt Q62446 (peptide sequence: GWDEALLTMSK, peptide start residue: 174) | 0.173 |
| UniProt Q66T02 (peptide sequence: SLSLPALRPSGAGPPVSER, peptide start residue: 232) | -0.166 |
| UniProt Q62406 (peptide sequence: AIQFLHQDSPSLIHGDIK, peptide start residue: 325) | -0.365 |
| UniProt Q61879 (peptide sequence: HATALEELSEQLEQAK, peptide start residue: 1201) | 0.633 |
| UniProt Q68FE6 (peptide sequence: SQSFAGVLGSHER, peptide start residue: 20) | 0.303 |
| UniProt Q61858 (peptide sequence: AEPVLDGAAAR, peptide start residue: 54) | -0.14 |
| UniProt Q64105 (peptide sequence: EELGAQQPDLK, peptide start residue: 53) | -0.412 |
| UniProt Q62312 (peptide sequence: VREHPCVESMKDSVLR, peptide start residue: 478) | 0.457 |
| UniProt Q61712 (peptide sequence: LLIKPQWHDLLPCK, peptide start residue: 209) | 0.427 |

| Target | log2 fold change |
| --- | --- |
| UniProt Q69ZF3 (peptide sequence: YYNYDSSSHPQSR, peptide start residue: 726) | -0.412 |
| UniProt Q62523 (peptide sequence: KFAPVVAPKPK, peptide start residue: 25) | 0.474 |
| UniProt Q69ZA1 (peptide sequence: SPYSPVLR, peptide start residue: 398) | -0.35 |
| UniProt Q64324 (peptide sequence: SQLLIMDR, peptide start residue: 228) | -0.236 |
| UniProt Q69ZC8 (peptide sequence: IPFDRDKDLK, peptide start residue: 305) | 0.569 |
| UniProt Q64321 (peptide sequence: FLHSYDLK, peptide start residue: 415) | 0.259 |
| UniProt Q68FD5 (peptide sequence: GQFSTDELVAEVEKR, peptide start residue: 838) | -0.237 |
| UniProt Q64524 (peptide sequence: ESYSIYVYK, peptide start residue: 36) | 0.641 |
| UniProt Q61409 (peptide sequence: LADINGPAKDRDLHLR, peptide start residue: 911) | 1.09 |
| UniProt Q61387 (peptide sequence: NKVPELQK, peptide start residue: 57) | -0.0448 |
| UniProt Q62191 (peptide sequence: MEMDLTMQR, peptide start residue: 160) | 0.184 |
| UniProt Q61510 (peptide sequence: VYGKFDTIYQVLVK, peptide start residue: 269) | -0.439 |
| UniProt Q62513 (peptide sequence: IHTGEKPYQCSECGK, peptide start residue: 376) | 0.207 |
| UniProt Q62210 (peptide sequence: AVEDFSSR, peptide start residue: 159) | 0.268 |
| UniProt Q62178 (peptide sequence: GNPEWVCTRGPMAR, peptide start residue: 540) | -0.421 |
| UniProt Q62074 (peptide sequence: LVTIECGR, peptide start residue: 185) | 0.509 |
| UniProt Q61733 (peptide sequence: YLEDFPK, peptide start residue: 326) | 0.203 |
| UniProt Q61329 (peptide sequence: QLMAQQELDR, peptide start residue: 3082) | -0.51 |
| UniProt Q63880 (peptide sequence: GRLQFWTETLPR, peptide start residue: 542) | -0.193 |
| UniProt Q64010 (peptide sequence: ALFDFNGNDEEDLPFKK, peptide start residue: 139) | 0.213 |
| UniProt Q68FF6 (peptide sequence: LLSLGAQANFFHPEK, peptide start residue: 152) | -0.386 |

Individual results from the results shown:
Entry of UniProt Q68FF6 (peptide sequence: LLSLGAQANFFHPEK, peptide start residue: 152) under log2 fold change: -0.386
Entry of UniProt Q69ZA1 (peptide sequence: SPYSPVLR, peptide start residue: 398) under log2 fold change: -0.35
Entry of UniProt Q62178 (peptide sequence: GNPEWVCTRGPMAR, peptide start residue: 540) under log2 fold change: -0.421
Entry of UniProt Q63880 (peptide sequence: GRLQFWTETLPR, peptide start residue: 542) under log2 fold change: -0.193
